Binding signal data for 23 sequences are collected here from publication PMC7819943, “Rice protein-binding microarrays: a tool to detect cis-acting elements near promoter regions in rice”.

Sequences of proteins named here, by UniProt entry; tags and fusion partners are left off.
UniProt Q0JBA9, entry or part of it: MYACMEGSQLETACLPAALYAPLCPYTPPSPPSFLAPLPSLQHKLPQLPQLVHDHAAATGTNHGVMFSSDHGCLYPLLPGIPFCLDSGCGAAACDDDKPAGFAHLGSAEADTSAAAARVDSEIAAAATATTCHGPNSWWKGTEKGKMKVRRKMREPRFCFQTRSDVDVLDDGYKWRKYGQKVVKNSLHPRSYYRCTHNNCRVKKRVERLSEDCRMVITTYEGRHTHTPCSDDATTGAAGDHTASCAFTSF

The other results are listed elsewhere or left out.

The assay concerns the target OsWRKY34 (Oryza sativa, UniProt Q0JBA9 1-250). Description: protein-binding microarray (RPBM); PBS, 2% BSA, 51.3 ng/ul salmon testes DNA, 50 uM zinc acetate, 200 nM TF, 25 C, 1 h; high values mean tight binding. The note with it: protein: recombinant; tags: N-terminal polyhistidine and DsRed monomer fusion (pET32a); label: CyDye5-dUTP incorporated in the synthesized complementary strand; 3' TTTTT single-stranded linker to array surface; dsDNA, one strand shown. Put shortly: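 The binding signal for each feature is its fluorescence intensity in arbitrary units. An Axon 4000B scanner was used to read a custom Agilent array that had been made double-stranded with Cy5-dUTP primer extension, blocked with 2% BSA, incubated at 25 °C for 1 h with 200 nM protein in PBS, 2% BSA, salmon testes DNA and 50 µM zinc acetate, and washed. The protein was an N-terminal polyhistidine–DsRed transcription factor fusion from E. coli BL21-CodonPlus, purified on Ni–NTA.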
Turning to “TTCTCTCTCAATTTTACATTGCATTTTCTTGTAAGTTACACGGAGTCACCTAGTGCAG”, the binding signal was 9000 fluorescence intensity (a.u.).
Turning to “AGCACTCCGCCCATCCCCGCGGCTGGCCTCGTCCGTCGCCCGGAGTCACCTAGTGCAG”, the binding signal is 9210 fluorescence intensity (a.u.).
For the sequence “GGGACATGAGAATTTTGGTGGAATGGGGATGGGGAATTGACGGAGTCACCTAGTGCAG”, the binding signal was 12400 fluorescence intensity (a.u.).
On to “CATTTTCTTATAATTAATTAAGTATTTGCTATTTTTTTTACGGAGTCACCTAGTGCAG”, for which the binding signal is 9060 fluorescence intensity (a.u.).
Regarding “CATTTTACCATGTGTTCATTTGTTCAACCAGGACCATGTACGGAGTCACCTAGTGCAG”, the binding signal was 8380 fluorescence intensity (a.u.).
For “TGAAGCATGAACGTTTTGCATTGCTTGTCACCTGCCTATACGGAGTCACCTAGTGCAG”, the binding signal is 8160 fluorescence intensity (a.u.).
Consider “CTCCCTACTACTCGGTTTCTGTCAGATCTCCGGCGAGCATCGGAGTCACCTAGTGCAG”, for which the binding signal is 10000 fluorescence intensity (a.u.).
To “ACGACCTGTTCTAATGACCCTGCATCTTGACTGAAGCCACCGGAGTCACCTAGTGCAG” belongs 8080 fluorescence intensity (a.u.); to “TAGTGTTGGTTTGATTTTTATATCACTAGAGATGAACTAACGGAGTCACCTAGTGCAG”, 8560 fluorescence intensity (a.u.); to “ACGCTAGCATCACTGCATCTGCACACACTGCACTTGCCTTCGGAGTCACCTAGTGCAG”, 9970 fluorescence intensity (a.u.).
The same measure for “TGGGTGGGAGGGTAGTTATGTACTTTCGCGTCTATTCCGCCGGAGTCACCTAGTGCAG”: 14100 fluorescence intensity (a.u.); for “TCTGGAAACCTTTTTCTCTTTGCTGACACCATTCTTGTTCCGGAGTCACCTAGTGCAG”: 8420 fluorescence intensity (a.u.); for “ACCGCCACTGACAACCGGGCCCCACCACACACCCGGCCCCCGGAGTCACCTAGTGCAG”: 8840 fluorescence intensity (a.u.).
On to “CGACAACGCACTCCGTCACTCCTACGATGAATATACCGCCCGGAGTCACCTAGTGCAG”, for which the binding signal was 8750 fluorescence intensity (a.u.).
To “CTTATCGCTCTTTGCTAGTTAGCGCTAATTCTCTTTAGCTCGGAGTCACCTAGTGCAG” belongs 10900 fluorescence intensity (a.u.); to “GGGTCCCACGTACTTTTTTGCCTTTTGTTTTATTATAATGCGGAGTCACCTAGTGCAG”, 8120 fluorescence intensity (a.u.).
With “TCTGTTACTCGATGCTATAATTGCCGCTATGGTCTTTGAACGGAGTCACCTAGTGCAG”, the binding signal is 10200 fluorescence intensity (a.u.).
To “ACGGCCTCTCACCTCGTCTCGACCCATCGGAGCCACCACTCGGAGTCACCTAGTGCAG” belongs 10300 fluorescence intensity (a.u.).
The same measure for “GATTTGCACTACTCTACACACTGCAGAGTCACAAGATCACCGGAGTCACCTAGTGCAG”: 8090 fluorescence intensity (a.u.).
On to “GTTTCATCCATATCCTAATCTGGTAGTTTGAGCCTTTTGACGGAGTCACCTAGTGCAG”, for which the binding signal was 8140 fluorescence intensity (a.u.).
In the case of “TAATAAATCACTTGTGGCTATTGTGTTTGTTACTTTACTTCGGAGTCACCTAGTGCAG”, the binding signal is 8230 fluorescence intensity (a.u.).
For the sequence “TTGGTTAGGTACAGTGTTTGGTGTGGATGTGTATAGATTTCGGAGTCACCTAGTGCAG”, the binding signal is 8500 fluorescence intensity (a.u.).
“TATGGCTTCTCACCTCGGTTGATTGATTTTTGATCGATCCCGGAGTCACCTAGTGCAG”: the binding signal was 8170 fluorescence intensity (a.u.).
